Measurements published in article PMC7480387.

How the values were obtained:
[1] = system: T1, GST-SfbR2 (Streptomyces filipinensis DSM 40112); assay: EMSA; conditions: EMSA: 100 mM HEPES pH 7.6, 10 mM KCl, 5 mM MgCl2, 1 mM DTT, 1% Tween 20, 7.8 mM glutathione, 40 ug/ml poly[d(I-C)], 5% glycerol, 30 C, 10 min, recombinant protein, residues 1-205, protein details: N-terminal GST, label: DIG, both 3' ends, probe letters rebuilt from the primers and the genome
T1 sequence (looked up): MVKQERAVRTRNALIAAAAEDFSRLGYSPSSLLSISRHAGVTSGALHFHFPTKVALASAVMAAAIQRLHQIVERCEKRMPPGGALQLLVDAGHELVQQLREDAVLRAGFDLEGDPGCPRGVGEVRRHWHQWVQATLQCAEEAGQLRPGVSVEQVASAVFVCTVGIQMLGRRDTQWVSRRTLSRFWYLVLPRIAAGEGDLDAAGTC

[2] = system: T2, GST-SfbR (Streptomyces filipinensis DSM 40112); assay: EMSA; conditions: EMSA: 100 mM HEPES pH 7.6, 10 mM KCl, 5 mM MgCl2, 1 mM DTT, 1% Tween 20, 7.8 mM glutathione, 40 ug/ml poly[d(I-C)], 5% glycerol, 30 C, 10 min, recombinant protein, residues 1-233, protein details: N-terminal GST, label: DIG, both 3' ends, probe letters rebuilt from the primers and the genome
T2 sequence (looked up): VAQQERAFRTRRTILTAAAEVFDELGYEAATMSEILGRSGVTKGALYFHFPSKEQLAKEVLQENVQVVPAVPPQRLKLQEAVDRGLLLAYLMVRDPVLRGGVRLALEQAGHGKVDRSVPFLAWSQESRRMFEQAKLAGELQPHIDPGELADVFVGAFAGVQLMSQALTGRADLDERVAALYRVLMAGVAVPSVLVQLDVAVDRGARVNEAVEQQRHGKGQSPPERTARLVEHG

[3] = 2 mM filipin (no dissociation), 0.005 ng/ul probe
[4] = antimycin A (no dissociation), 0.005 ng/ul probe
[5] = up to 5 uM protein, 0.005 ng/ul probe

Sequence | binding result [1, 3] | binding result ([1]; 0.005 ng/ul …) | binding result ([2]; 0.005 ng/ul …) | binding result [2, 4] | binding result [1, 5] | binding result [2, 5]
GAGAGCAGCCCCTTCGCAACGGACCGCGCAGGTCTGCCGCCTTTTTTAACGGGAACCGCGCCGGCCGCTTGTGTGAATACAGCGTTTCACGGCCCGCCGAATGGCTTTACCGCCAGAAGCGGGCCTTCCGCTTCCACTCGAAACGGTTACCCGGCCGAGCGCAAATTTTTCTTCGTGGTCGCCCCAAACTAAACCGGTGAGCCCGTATATTTCGTGGGGACCCTTTCGAACCACGTCGTCATCCAACCTTTGAACCGTCGGGAAGAGGGGAACCCATGACCCTGCTCGTTCGCCAGCAAGAGCCCACCCGC (double strand) [sfbAp] | binds | binds | binds | binds |  | 
AGCTCGTTCCCCCTGCCCGGTCCAGGGTTCCCGGGGGCCGCGGACCCGCGGGCTCCGGCCCGGCGCCTCCCGCGAACCCATGTCCCGGAGCCCTAACAAACCGCATCAGCGGTTTGTTAATCTTGGGGGAGTTGTGGGCGCGTTCTGCTGCCGGGCAGAGCCGCTTGGACGGGGGTGTCATCTCCGTGGCCGTACGCGGCCACGGAACGGCTCGGGAGCTACGGAGCACCTCGATGGTCAAGCAGGAACGTGCCGTACGGACCCGCAACGCGCTGATCGCCGCTGCGGCCGAAGACTTCAGCAGGCTGGGGTACAGCCCTTCCTCGCTGCTGTCCA (double strand) [sfbR2p] |  | binds | binds |  |  | 
CGGTGATCTGGGCGTGCCTGCCGTTAACGCGTCGAGCATCAGCGCCTCCTGAGGCATCTCCGGTTCAGGCTTCATGGCGCCGATGATACTGAAAATAAACCGACTACTCCGTTTTATTTGGGCGGGGCTCAAGCGCCTGTAGAGCTGGTTTCGAGCGGGCGGGGCGGGGGCGTCGGGCCTGATCGCAGGCGCCTGAGCCGGGTGAGGGCCGCGCGGCGCAGGGCCGGCGGTTCGTGCTCGGCGCACTCGGCGGCGTAGATGCCGATGAGGCTGTGGAAGCGGTACTCGTTGTCCGGTCCTTCCTCCAGCAGGTGGTGGGCGGC (double strand) [sfb2p] |  | binds | binds |  |  | 
CAGCAGCGGCACGGCAAGGGACAGTCCCCGCCCGAGCGCACGGCCCGCCTCGTCGAGCACGGTTGAGTACGGCCGGATCAGACCCGCACGGCGATCACACACCACCGTGCGGGTCCACCCAGGACGGAGTGCATCAATGGTGGTATCGGCCTGCCCCTACGCCCTGGACCTGACGGGCAGTCACTTAGCGGAGGAAGCCGCCCGGCTCAGACAGCACGGCCCCGCAGCCCGCGTCACCCTGCCCGACGGCGTGCCGGCCTGGGCCGTGACGCGGCACTCCAGCGCCAGGCGACTGCTGGTGGACCCC (double strand) [sfb4p] |  |  |  |  | no binding | no binding
GCCGCAGCGGTCAGGATCGTACGCCGCGTCCGAAAGGCCCGTTCCTGCTGCGCCACGCCACACCTCCTCACCCTGACCCGGGTCCCCCACACCCGGGAAGCAAAAGAAACCGTCGAGTTCGTATGCTATCAGCACGTGTTCACGCCCGGGCGGTGATCCTCGCGGTGTGGCCCCTCCGCGGCCCGGCCGGCGCGCGGGACCCGCCCGGAAGGGCCGAAGGGTGGCGTGCGCGGAATTCGGTGGGGGTTTTCGCGCGGTCCGTATCCGCCGGCGCCGGTGAATCGGGGCCGGCGTCGAAACGGGTGCGG (double strand) [sfbRp] | binds | binds | binds | binds |  | 

No signal at the amounts used counts as a negative. Where a protein sequence is shown, tags need not be part of it. The exact form of at least one protein or probe is not confirmed. At least one verdict was read from the data and is not stated in words by the source.
